# Results from the supplement of paper PMC10032668.
# Chains of the proteins cited; added tags and fusions are not shown.
# HIST1H1D, P16402, UniProt P16402, whole entry: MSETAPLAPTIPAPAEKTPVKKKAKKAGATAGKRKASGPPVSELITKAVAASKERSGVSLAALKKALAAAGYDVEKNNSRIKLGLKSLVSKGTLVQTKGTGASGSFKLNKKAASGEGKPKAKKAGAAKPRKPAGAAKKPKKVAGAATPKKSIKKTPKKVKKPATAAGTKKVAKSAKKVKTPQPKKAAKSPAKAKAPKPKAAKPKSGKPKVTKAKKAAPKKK
# TOMM20, Q15388, UniProt Q15388, whole entry: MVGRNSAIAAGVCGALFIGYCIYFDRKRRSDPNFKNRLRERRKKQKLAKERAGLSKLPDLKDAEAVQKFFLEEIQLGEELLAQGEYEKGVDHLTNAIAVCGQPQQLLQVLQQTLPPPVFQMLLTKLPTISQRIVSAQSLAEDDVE
# ATXN2, Q99700, UniProt Q99700, whole entry: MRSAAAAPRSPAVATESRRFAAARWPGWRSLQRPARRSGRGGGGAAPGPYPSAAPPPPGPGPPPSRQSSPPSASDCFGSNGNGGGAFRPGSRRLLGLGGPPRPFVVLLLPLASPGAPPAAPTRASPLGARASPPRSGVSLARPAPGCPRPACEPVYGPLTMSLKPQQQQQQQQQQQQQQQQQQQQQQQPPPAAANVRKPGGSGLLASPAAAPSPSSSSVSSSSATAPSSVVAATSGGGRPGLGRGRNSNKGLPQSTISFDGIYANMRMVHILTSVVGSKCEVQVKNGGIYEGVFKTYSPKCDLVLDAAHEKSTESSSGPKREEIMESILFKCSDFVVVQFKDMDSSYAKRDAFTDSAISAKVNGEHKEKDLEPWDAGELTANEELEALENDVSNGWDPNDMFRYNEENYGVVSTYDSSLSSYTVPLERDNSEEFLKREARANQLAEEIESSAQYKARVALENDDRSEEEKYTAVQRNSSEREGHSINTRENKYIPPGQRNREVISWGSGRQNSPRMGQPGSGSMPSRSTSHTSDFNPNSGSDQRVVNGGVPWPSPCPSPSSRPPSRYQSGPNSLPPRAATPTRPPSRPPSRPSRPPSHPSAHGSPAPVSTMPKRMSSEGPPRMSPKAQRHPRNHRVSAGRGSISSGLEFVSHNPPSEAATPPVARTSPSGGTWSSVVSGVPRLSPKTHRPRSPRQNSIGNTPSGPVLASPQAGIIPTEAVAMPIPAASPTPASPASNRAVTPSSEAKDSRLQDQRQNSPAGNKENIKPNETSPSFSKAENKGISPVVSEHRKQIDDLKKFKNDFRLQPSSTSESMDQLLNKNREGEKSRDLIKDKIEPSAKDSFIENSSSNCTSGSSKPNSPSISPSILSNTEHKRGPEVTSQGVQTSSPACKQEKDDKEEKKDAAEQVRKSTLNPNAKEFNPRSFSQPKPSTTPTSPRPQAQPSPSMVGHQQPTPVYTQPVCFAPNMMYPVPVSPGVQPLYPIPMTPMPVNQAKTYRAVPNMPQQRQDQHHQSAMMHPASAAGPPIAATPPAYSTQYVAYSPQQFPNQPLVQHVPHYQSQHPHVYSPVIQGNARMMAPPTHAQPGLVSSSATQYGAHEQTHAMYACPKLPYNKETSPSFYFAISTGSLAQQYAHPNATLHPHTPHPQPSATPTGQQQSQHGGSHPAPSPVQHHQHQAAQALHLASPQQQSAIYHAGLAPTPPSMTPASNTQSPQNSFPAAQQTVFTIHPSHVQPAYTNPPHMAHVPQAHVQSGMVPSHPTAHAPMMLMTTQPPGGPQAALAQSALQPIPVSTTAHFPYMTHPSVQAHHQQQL
# The other results are listed elsewhere or left out. Only hits are listed; about a third recur on repeated control peptides.
# Key:
# Experiment in all cases: PRISMA enrichment of interactor (LFQ) in peptide spot vs all other peptide spots (log2 fold change); higher = stronger / more specific binding of the interactor to the peptide
# ALKBH5, Q6P6C2 = molecular target: ALKBH5, Q6P6C2
# Procedure: (§1)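 PRISMA: 15-aa overlapping tiles (offset 8 aa) of 60 microproteins, plus SOS1/GLUT1 control peptides, were spot-synthesized on cellulose membranes in triplicate. Membranes were incubated with benzonase-treated HEK293T lysate, and bound proteins were identified by LC-MS/MS with LFQ. Enrichment is the log2 fold change of each protein in one spot versus all other spots. Only interactors passing the significance cutoff are listed.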
# C11orf98, E9PRG8 = molecular target: C11orf98, E9PRG8
# Procedure: as §1
# C19orf53, Q9UNZ5 = molecular target: C19orf53, Q9UNZ5
# Procedure: as §1
# CHMP2B, Q9UQN3 = molecular target: CHMP2B, Q9UQN3
# Procedure: as §1
# CHTOP, Q9Y3Y2 = molecular target: CHTOP, Q9Y3Y2
# Procedure: as §1
# CLIP2, Q9UDT6 = molecular target: CLIP2, Q9UDT6
# Procedure: as §1
# DNAJC19, Q96DA6 = molecular target: DNAJC19, Q96DA6
# Procedure: as §1
# ECHS1, P30084 = molecular target: ECHS1, P30084
# Procedure: as §1
# EDF1, O60869 = molecular target: EDF1, O60869
# Procedure: as §1
# FAM207A, Q9NSI2 = molecular target: FAM207A, Q9NSI2
# Procedure: as §1
# HIST1H1D, P16402 = molecular target: HIST1H1D, P16402
# Procedure: as §1
# HMGB1, P09429 = molecular target: HMGB1, P09429
# Procedure: as §1
# HMGB3, O15347 = molecular target: HMGB3, O15347
# Procedure: as §1
# KHDRBS1, Q07666 = molecular target: KHDRBS1, Q07666
# Procedure: as §1
# POLDIP3, Q9BY77 = molecular target: POLDIP3, Q9BY77
# Procedure: as §1
# PRRC2A, P48634 = molecular target: PRRC2A, P48634
# Procedure: as §1
# RBM42, Q9BTD8 = molecular target: RBM42, Q9BTD8
# Procedure: as §1
# RPS19BP1, Q86WX3 = molecular target: RPS19BP1, Q86WX3
# Procedure: as §1
# RRP1B, Q14684 = molecular target: RRP1B, Q14684
# Procedure: as §1
# SDAD1, Q9NVU7 = molecular target: SDAD1, Q9NVU7
# Procedure: as §1
# TFAM, Q00059 = molecular target: TFAM, Q00059
# Procedure: as §1
# TOMM20, Q15388 = molecular target: TOMM20, Q15388
# Procedure: as §1
# ZNF706, Q9Y5V0 = molecular target: ZNF706, Q9Y5V0
# Procedure: as §1
# hCG_2014768 = molecular target: hCG_2014768
# Procedure: as §1
# EIF1, P41567 = molecular target: EIF1, P41567
# Procedure: as §1
# TMEM97, Q5BJF2 = molecular target: TMEM97, Q5BJF2
# Procedure: as §1
# VPS4A, Q9UN37 = molecular target: VPS4A, Q9UN37
# Procedure: as §1
# ALYREF, Q86V81 = molecular target: ALYREF, Q86V81
# Procedure: as §1
# ATG3, Q9NT62 = molecular target: ATG3, Q9NT62
# Procedure: as §1
# ATP6V0D1, P61421 = molecular target: ATP6V0D1, P61421
# Procedure: as §1
# ATXN2, Q99700 = molecular target: ATXN2, Q99700
# Procedure: as §1
# FKBP1A, P62942 = molecular target: FKBP1A, P62942
# Procedure: as §1
# MCM2, P49736 = molecular target: MCM2, P49736
# Procedure: as §1
# NDUFB7, P17568 = molecular target: NDUFB7, P17568
# Procedure: as §1
# P4HB, P07237 = molecular target: P4HB, P07237
# Procedure: as §1
# [1] = substrate: PPIF, P30405
# Procedure: as §1
# TARDBP, Q13148 = molecular target: TARDBP, Q13148
# Procedure: as §1
binder,measurement,setting,value
QFIMELLYWLLEGGD,PRISMA enrichment of interactor (log2),"ALKBH5, Q6P6C2",3.98
same,PRISMA enrichment of interactor (log2),"C11orf98, E9PRG8",4.64
same,PRISMA enrichment of interactor (log2),"C19orf53, Q9UNZ5",5.09
same,PRISMA enrichment of interactor (log2),"CHMP2B, Q9UQN3",4.04
same,PRISMA enrichment of interactor (log2),"CHTOP, Q9Y3Y2",3.74
same,PRISMA enrichment of interactor (log2),"CLIP2, Q9UDT6",4.29
same,PRISMA enrichment of interactor (log2),"DNAJC19, Q96DA6",3.69
same,PRISMA enrichment of interactor (log2),"ECHS1, P30084",4.16
same,PRISMA enrichment of interactor (log2),"EDF1, O60869",4.07
same,PRISMA enrichment of interactor (log2),"FAM207A, Q9NSI2",4.08
same,PRISMA enrichment of interactor (log2),"HIST1H1D, P16402",3.78
same,PRISMA enrichment of interactor (log2),"HMGB1, P09429",6.03
same,PRISMA enrichment of interactor (log2),"HMGB3, O15347",5.45
same,PRISMA enrichment of interactor (log2),"KHDRBS1, Q07666",5.6
same,PRISMA enrichment of interactor (log2),"POLDIP3, Q9BY77",4.48
same,PRISMA enrichment of interactor (log2),"PRRC2A, P48634",3.65
same,PRISMA enrichment of interactor (log2),"RBM42, Q9BTD8",3.6
same,PRISMA enrichment of interactor (log2),"RPS19BP1, Q86WX3",4.65
same,PRISMA enrichment of interactor (log2),"RRP1B, Q14684",4.23
same,PRISMA enrichment of interactor (log2),"SDAD1, Q9NVU7",4.51
same,PRISMA enrichment of interactor (log2),"TFAM, Q00059",4.3
same,PRISMA enrichment of interactor (log2),"TOMM20, Q15388",3.91
same,PRISMA enrichment of interactor (log2),"ZNF706, Q9Y5V0",3.47
same,PRISMA enrichment of interactor (log2),hCG_2014768,5.63
LEWFKYVLGIPVYRL,PRISMA enrichment of interactor (log2),"ALKBH5, Q6P6C2",6.36
same,PRISMA enrichment of interactor (log2),"EIF1, P41567",6.2
same,PRISMA enrichment of interactor (log2),"TMEM97, Q5BJF2",4.07
same,PRISMA enrichment of interactor (log2),"VPS4A, Q9UN37",4.52
PSSLWNSEMSTSLSV [RP11-140K17.3_2],PRISMA enrichment of interactor (log2),"ALYREF, Q86V81",5.24
same,PRISMA enrichment of interactor (log2),"ATG3, Q9NT62",5.65
same,PRISMA enrichment of interactor (log2),"ATP6V0D1, P61421",5.71
same,PRISMA enrichment of interactor (log2),"ATXN2, Q99700",5.69
same,PRISMA enrichment of interactor (log2),"FKBP1A, P62942",4.65
same,PRISMA enrichment of interactor (log2),"MCM2, P49736",5.23
same,PRISMA enrichment of interactor (log2),"NDUFB7, P17568",4.71
same,PRISMA enrichment of interactor (log2),"P4HB, P07237",5.29
same,PRISMA enrichment of interactor (log2),[1],5.7
same,PRISMA enrichment of interactor (log2),"TARDBP, Q13148",4.42

# Already shown: entries from further up.
binder,measurement,setting,value
QFIMELLYWLLEGGD,PRISMA enrichment of interactor (log2),"SDAD1, Q9NVU7",4.51
same,PRISMA enrichment of interactor (log2),"TFAM, Q00059",4.3
